These results are taken from article PMC5476828.

Amino acid sequences for entries named in this document (tags omitted). A change or cut given only in a name is not applied to a line headed by its entry. Chains listed by the source or under a name are the forms on record and can include a tag or linker. Residues count along the entry.
UniProt Q8TB45: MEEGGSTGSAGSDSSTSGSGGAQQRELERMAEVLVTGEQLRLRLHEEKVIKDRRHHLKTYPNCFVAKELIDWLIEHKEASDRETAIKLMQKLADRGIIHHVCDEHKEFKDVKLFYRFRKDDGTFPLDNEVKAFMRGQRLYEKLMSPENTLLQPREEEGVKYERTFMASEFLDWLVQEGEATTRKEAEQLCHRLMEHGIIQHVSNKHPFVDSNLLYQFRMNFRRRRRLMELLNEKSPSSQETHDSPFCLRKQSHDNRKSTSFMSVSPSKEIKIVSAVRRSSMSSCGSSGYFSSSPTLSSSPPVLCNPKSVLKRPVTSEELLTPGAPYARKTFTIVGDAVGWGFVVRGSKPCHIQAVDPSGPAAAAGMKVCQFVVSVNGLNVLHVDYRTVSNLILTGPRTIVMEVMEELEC
Flag-tagged DEPTOR PDZ domain: residues 330-407 of Q8TB45
UniProt Q8BKH7: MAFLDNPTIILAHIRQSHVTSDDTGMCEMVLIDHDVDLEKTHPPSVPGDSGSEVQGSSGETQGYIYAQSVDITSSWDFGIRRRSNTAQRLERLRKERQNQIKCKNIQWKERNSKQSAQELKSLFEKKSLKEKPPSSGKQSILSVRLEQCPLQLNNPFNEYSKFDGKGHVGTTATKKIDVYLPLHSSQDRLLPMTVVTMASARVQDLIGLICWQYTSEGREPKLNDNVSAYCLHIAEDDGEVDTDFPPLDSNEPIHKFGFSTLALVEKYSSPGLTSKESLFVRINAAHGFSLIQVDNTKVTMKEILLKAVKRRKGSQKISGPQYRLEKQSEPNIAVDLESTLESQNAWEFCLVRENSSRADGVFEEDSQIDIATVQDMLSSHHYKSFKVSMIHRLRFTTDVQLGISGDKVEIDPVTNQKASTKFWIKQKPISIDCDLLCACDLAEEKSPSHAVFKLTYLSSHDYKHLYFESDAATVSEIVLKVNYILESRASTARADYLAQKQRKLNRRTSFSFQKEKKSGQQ
UniProt Q570Y9: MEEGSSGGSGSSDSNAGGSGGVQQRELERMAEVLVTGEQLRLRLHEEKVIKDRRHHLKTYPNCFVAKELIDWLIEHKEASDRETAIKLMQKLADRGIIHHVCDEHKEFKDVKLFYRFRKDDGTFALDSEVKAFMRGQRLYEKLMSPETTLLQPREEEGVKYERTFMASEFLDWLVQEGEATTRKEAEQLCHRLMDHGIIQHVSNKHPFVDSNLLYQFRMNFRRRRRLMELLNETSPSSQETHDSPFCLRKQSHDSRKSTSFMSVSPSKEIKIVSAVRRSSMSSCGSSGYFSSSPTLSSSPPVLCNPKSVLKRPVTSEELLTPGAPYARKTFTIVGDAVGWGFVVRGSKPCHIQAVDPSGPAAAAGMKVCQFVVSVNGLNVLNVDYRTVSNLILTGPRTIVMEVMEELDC
UniProt Q6QI06: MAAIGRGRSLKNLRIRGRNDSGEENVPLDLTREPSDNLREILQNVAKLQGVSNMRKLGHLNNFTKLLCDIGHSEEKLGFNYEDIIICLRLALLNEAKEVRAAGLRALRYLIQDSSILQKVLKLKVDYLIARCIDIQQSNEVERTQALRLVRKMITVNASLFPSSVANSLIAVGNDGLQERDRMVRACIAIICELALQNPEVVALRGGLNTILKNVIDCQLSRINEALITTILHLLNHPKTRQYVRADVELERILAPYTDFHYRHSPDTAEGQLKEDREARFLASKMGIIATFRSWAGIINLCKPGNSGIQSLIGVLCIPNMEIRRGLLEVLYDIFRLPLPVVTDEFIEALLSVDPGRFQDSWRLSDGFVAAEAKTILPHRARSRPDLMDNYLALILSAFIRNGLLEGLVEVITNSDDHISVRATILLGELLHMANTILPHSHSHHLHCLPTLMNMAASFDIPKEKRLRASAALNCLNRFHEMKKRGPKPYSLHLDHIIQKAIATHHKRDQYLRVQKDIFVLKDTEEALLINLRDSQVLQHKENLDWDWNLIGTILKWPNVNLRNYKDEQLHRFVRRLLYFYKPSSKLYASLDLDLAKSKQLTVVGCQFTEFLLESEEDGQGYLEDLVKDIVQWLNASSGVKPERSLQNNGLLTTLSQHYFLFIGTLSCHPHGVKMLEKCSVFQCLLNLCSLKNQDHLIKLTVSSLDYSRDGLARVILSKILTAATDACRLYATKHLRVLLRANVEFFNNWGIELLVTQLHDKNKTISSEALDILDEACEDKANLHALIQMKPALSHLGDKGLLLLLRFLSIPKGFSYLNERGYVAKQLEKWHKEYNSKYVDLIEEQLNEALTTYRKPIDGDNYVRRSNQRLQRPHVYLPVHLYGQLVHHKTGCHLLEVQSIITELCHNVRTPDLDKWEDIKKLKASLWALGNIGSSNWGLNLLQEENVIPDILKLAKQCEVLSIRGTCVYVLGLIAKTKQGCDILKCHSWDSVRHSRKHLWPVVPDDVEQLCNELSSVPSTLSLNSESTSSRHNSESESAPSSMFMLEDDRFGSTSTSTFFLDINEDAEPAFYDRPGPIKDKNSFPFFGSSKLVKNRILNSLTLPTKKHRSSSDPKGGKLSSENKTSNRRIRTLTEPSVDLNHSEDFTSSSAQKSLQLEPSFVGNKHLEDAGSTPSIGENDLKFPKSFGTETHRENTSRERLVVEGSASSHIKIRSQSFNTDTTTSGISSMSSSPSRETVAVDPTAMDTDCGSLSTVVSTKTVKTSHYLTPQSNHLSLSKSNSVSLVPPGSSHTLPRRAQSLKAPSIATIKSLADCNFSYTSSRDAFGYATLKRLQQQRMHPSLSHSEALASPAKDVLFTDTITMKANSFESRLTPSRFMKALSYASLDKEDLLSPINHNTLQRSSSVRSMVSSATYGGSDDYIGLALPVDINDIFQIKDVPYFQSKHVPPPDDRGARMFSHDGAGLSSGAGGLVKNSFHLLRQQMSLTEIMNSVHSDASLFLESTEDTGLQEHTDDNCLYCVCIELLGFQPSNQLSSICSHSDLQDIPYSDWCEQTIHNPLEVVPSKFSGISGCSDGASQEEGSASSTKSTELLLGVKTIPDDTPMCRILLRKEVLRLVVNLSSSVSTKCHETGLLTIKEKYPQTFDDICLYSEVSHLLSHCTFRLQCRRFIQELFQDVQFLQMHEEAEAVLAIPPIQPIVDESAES
UniProt Q8K4Q0: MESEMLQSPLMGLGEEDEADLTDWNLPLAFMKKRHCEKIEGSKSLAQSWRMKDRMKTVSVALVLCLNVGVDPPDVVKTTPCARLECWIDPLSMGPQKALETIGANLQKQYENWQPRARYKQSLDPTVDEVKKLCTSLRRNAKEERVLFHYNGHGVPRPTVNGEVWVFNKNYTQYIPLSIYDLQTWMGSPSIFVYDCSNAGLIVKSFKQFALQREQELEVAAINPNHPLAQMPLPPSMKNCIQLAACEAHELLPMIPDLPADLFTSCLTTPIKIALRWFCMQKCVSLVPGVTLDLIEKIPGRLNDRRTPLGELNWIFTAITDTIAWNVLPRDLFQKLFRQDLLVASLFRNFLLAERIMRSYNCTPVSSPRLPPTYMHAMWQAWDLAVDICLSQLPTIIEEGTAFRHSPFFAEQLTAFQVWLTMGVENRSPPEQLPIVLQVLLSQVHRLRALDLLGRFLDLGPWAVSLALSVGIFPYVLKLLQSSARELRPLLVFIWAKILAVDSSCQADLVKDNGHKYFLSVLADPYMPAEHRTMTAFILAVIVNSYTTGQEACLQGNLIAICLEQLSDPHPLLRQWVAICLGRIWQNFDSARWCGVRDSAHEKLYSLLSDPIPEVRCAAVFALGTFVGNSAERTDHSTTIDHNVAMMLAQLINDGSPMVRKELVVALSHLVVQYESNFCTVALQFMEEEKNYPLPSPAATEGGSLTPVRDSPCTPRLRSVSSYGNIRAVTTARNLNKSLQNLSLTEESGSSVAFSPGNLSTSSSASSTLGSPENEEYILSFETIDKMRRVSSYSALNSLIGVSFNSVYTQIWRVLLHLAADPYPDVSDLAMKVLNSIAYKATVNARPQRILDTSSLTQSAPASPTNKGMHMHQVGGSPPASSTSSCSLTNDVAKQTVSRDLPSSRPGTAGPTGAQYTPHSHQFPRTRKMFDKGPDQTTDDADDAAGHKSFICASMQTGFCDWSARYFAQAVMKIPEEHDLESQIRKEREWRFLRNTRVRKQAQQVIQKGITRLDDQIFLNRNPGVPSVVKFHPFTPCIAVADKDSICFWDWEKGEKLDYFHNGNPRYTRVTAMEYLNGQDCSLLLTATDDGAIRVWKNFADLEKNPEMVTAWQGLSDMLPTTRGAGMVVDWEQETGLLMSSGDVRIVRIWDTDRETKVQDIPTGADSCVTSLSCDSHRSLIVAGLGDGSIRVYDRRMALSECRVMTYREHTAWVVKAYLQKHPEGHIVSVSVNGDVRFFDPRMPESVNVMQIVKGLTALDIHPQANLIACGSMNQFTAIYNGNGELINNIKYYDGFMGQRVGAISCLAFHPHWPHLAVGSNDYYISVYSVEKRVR
UniProt Q9DCJ1: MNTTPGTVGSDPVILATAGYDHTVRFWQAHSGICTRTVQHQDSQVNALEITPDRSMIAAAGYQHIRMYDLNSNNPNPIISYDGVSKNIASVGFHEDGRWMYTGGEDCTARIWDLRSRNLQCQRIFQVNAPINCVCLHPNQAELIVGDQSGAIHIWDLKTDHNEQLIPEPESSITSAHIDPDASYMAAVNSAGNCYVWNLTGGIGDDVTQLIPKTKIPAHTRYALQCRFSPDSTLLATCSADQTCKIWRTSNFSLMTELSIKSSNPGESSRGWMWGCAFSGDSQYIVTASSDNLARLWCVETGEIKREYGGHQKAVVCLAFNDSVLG

Numbering of substitutions follows the chain as printed. Results are given in words; binding and its absence hold for the method and conditions named. In cells and extracts the contact can be indirect. Some entries that bind do so weakly or less than the wild type. For some of these results: Sequences can lack the tags named with a protein.

For assay [1], the target named is T1, endogenous p38γ (mouse) (mouse (endogenous in MEF and heart)) (UniProt O08911).
T1 sequence: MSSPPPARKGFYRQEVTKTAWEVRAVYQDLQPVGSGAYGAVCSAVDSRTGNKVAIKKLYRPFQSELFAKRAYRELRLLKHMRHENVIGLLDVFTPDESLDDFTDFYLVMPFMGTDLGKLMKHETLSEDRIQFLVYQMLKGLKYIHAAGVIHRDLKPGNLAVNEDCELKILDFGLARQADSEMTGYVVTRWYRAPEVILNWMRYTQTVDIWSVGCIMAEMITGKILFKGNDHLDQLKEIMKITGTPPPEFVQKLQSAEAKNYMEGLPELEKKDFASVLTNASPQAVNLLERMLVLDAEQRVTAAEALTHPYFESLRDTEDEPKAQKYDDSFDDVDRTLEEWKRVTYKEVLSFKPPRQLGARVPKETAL
Briefly: co-IP; endogenous p38γ (or p38δ) immunoprecipitated with specific antibodies from WT and p38γ/δ−/− MEF lysates; immunoblot of immunoprecipitates.

In assay [2] the target is T1, endogenous p38γ (mouse) (mouse (endogenous in MEF and heart)). Briefly: co-IP; WT mouse heart extracts in Triton lysis buffer with 0.3% Chaps; 4 μg specific antibody (p38γ or p38δ) coupled to protein-G-Sepharose, overnight at 4 °C; beads washed four times; immunoblot. Background: Immunoblotting shows a protein as a band on a membrane.
Assay [3] addresses T2, p38δ active mutant F324S (human), expressed in mouse heart from AAV-TnT-p38δact (human) (UniProt O15264).
T2 sequence: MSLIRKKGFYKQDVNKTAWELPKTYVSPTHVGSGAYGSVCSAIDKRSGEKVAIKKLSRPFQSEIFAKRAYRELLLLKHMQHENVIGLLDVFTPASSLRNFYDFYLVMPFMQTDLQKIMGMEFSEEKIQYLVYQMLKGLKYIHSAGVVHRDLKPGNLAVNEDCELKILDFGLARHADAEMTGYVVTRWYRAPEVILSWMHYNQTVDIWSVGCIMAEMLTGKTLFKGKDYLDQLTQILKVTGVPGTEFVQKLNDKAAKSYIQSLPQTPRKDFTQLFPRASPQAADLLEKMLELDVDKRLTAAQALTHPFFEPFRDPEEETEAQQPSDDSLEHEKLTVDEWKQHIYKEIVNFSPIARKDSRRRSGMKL
Briefly: co-IP; p38δ immunoprecipitated from hearts of 9-week-old p38γ/δ−/− mice infected with AAV-TnT-p38γact and AAV-TnT-p38δact; immunoblot.

The target in assay [4] is T3, endogenous p38δ (mouse) (mouse (endogenous in MEF and heart)) (UniProt Q9Z1B7).
T3 sequence: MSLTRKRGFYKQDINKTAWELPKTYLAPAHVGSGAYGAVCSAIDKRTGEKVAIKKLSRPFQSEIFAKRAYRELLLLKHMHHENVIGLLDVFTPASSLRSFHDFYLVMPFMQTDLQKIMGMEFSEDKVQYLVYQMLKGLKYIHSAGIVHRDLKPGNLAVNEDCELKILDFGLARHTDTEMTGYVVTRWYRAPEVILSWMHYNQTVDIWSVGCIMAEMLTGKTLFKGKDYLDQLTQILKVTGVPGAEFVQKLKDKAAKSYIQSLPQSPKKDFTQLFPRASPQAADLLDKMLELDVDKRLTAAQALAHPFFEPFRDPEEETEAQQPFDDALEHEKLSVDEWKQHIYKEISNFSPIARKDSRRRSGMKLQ
Briefly: co-IP; endogenous p38γ (or p38δ) immunoprecipitated with specific antibodies from WT and p38γ/δ−/− MEF lysates; immunoblot of immunoprecipitates.

For assay [5], the target named is T3, endogenous p38δ (mouse) (mouse (endogenous in MEF and heart)). Briefly: co-IP; WT mouse heart extracts in Triton lysis buffer with 0.3% Chaps; 4 μg specific antibody (p38γ or p38δ) coupled to protein-G-Sepharose, overnight at 4 °C; beads washed four times; immunoblot.
For assay [6], the target named is T1, endogenous p38γ (mouse) (mouse (endogenous in MEF and heart)). The assay is described as above. The source holds these as a separate data set.
Assay [7] addresses T4, endogenous p38γ (HEK-293T) (human (endogenous in HEK-293T)) (UniProt P53778).
T4 sequence: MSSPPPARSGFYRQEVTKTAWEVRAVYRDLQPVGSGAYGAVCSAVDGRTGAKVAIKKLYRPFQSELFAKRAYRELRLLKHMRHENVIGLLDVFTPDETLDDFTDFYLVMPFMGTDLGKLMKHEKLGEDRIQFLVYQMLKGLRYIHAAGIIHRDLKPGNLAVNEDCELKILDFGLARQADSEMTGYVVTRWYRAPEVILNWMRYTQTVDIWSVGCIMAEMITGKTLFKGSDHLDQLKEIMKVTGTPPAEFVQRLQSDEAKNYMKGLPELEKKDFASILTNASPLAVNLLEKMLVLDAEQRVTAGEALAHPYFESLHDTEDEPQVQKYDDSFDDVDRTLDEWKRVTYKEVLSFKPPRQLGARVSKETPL
Briefly: co-IP; endogenous p38γ immunoprecipitated from HEK-293T cells transfected with HA-p38δ; immunoblot.

Assay [8] addresses Flag-tagged DEPTOR (human) (human) (UniProt Q8TB45). Briefly: co-IP; HEK-293 (HEK-293T) cells transfected with HA-p38γ or HA-p38δ, Flag-DEPTOR or its Flag-tagged domains and Myc-mTOR, alone or in combination; immunoprecipitation with anti-Flag or anti-c-myc; immunoblot.
Assay [9] addresses Flag-tagged DEPTOR PDZ domain (UniProt Q8TB45). The assay is described as above.
The target in assay [10] is T3, endogenous p38δ (mouse) (mouse (endogenous in MEF and heart)). Briefly: co-IP; WT mouse heart extracts in Triton lysis buffer with 0.3% Chaps; 4 μg specific antibody (p38γ or p38δ) coupled to protein-G-Sepharose, overnight at 4 °C; beads washed four times; immunoblot. This is another data set of the same source.

Consider “endogenous Sin-1 (mouse) (from UniProt Q8BKH7 1-522)”, for which the binding result in assay [1] and in [2] was “binds” in each case.
With “endogenous DEPTOR (mouse) (from UniProt Q570Y9 1-409)”, the binding result in [3], in assay [1], in assay [4], in assay [2] and in [5] was “binds” throughout.
“endogenous Rictor (mouse) (from UniProt Q6QI06 1-1708)”: the binding result in assay [1] and in assay [2] was “binds” in each case.
Turning to “endogenous Raptor (mouse) (from UniProt Q8K4Q0 1-1335)”, the binding entry in [1] and in assay [2] was “binds” each time.
Turning to “endogenous GβL (mouse) (from UniProt Q9DCJ1 1-326)”, the binding result in assay [2] is “binds”.

B1: endogenous p38δ (mouse) (protein, UniProt Q9Z1B7 1-366)
chain: T3 sequence
With B1, the binding result in assay [6] is reported as “binds”.

B2: HA-tagged p38δ (human) (protein, UniProt O15264 1-365)
chain: T2 sequence with S324F
Consider B2, for which the binding entry in assay [7] is recorded as “binds”; in assay [8], “binds”; in assay [9] it was “no binding”.

B3: endogenous p38γ (mouse) (protein, UniProt O08911 1-367)
chain: T1 sequence
For the molecule B3, the binding entry in assay [10] is given as “binds”.

B4: HA-tagged p38γ (human) (protein, UniProt P53778 1-367)
chain: T4 sequence
For the molecule B4, the binding entry in [8] and in assay [9] was “binds” each time.
